The results in this text go back to publication PMC8464784.

In the assay the target is FLAG-P6 (Cauliflower mosaic virus P6 protein) (Cauliflower mosaic virus (strain CM1841)). The assay is described as follows: affinity purification with mass spectrometry; anti-FLAG antibody purification from transgenic Arabidopsis 35S: FLAG-P6, control transgenic Arabidopsis 35S: FLAG-EGFP.

Results are given in words; binding and its absence hold for the method and conditions named. Binding seen in cells or lysates may run through a third protein. A yes stands for co-enrichment or nearness to the bait. Other partners may have been found. Sequences can lack the tags named with a protein.

B1: AtHD2C (histone deacetylase HD2C), endogenous (protein, UniProt Q9LZR5 1-294)
chain: MEFWGVEVKNGKPLHLDPGLDRLVHISQVALGESKNNVTEPIQLYVTVGSDKLLIGTLSHEKFPQLSTEIVLERNFALSHTWKNGSVFFSGYKVDASDPEPEDLIDDQLEAAGFKAAPKSAAKQVNFQLPNEDVKAKQDDDADGSEEDSSDDDDSENSGDEEEEKVTAESDSEEDDSSDDEEDDSSEEETPKKPEEPKKRSAEPNSSKNPASNKKAKFVTPQKTDSKKPHVHVATPHPSKQAGKNSGGGSTGETSKQQQTPKSAGAFGCKSCTRTFTSEMGLQSHTKAKHSAAA
As for B1, the binding result is recorded as “binds”.
